Experimental data reported in PubChem BioAssay AID1487 (National Center for Advancing Translational Sciences (NCATS), 2009).
This is one part of the list. Further columns of the screen follow, without active or inactive calls. Compounds called inactive in the main read-out are mostly missing here. The note in brackets gives the kind of curve behind each potency; many fits are weak.

Experiment: qHTS Assay for Modulators of Lamin A Splicing
Conditions: HeLa LMNA splicing GFP/RFP minigene ratio, 48 h
Method in brief: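 Read-out is the ratio of GFP to DsRed2 object intensity, acquired by 488 nm laser-scanning cytometry on HeLa lamin A-EGFP minigene reporter cells. Compound incubation 48 hrs at 37 °C in Opti-MEM with 2% FBS; DMSO 0.5% final.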

[1] = measured here: RFP viability control channel
[2] = measured here: GFP splicing reporter channel

Compound | AC50 [1] | AC50 [2]
C=CCN(CC=C)S(=O)(=O)c1ccc(NC(=S)NC(=O)c2ccco2)cc1 | 22.4 µM [rising, single point] | 
COc1ccc(-c2ccnc3nc(-n4cccc4)nn23)cc1 | 0.447 µM [rising, single point] | 
Cc1cc(C)n(C(=O)c2ccc(NC(=O)C3COc4ccccc4O3)cc2)n1 (stereo unspecified) |  | 3.16 µM [rising, partial curve, poor fit]
Cc1cc(S(=O)(=O)N(Cc2ccc(C(C)(C)C)cc2)Cc2cccs2)ccc1-n1cnnn1 | 31.6 µM [rising, single point] | 25.1 µM [rising, single point]
Cc1ccc(-n2ncc3c(N(C)Cc4ccccc4)ncnc32)cc1 | 0.00447 µM [rising, full curve, poor fit] | 
Cc1cc(Cl)ccc1Oc1ncc(CN2CCN(c3ccccc3)CC2)s1 | 15.8 µM [rising, single point] | 
Cc1ccc(-c2cc(C(=O)N/N=C/C=C/c3ccccc3)n[nH]2)s1 | 35.5 µM [rising, single point] | 15.8 µM [rising, single point]
S=C(NCc1ccc2[nH]c3c(c2c1)CCCC3)Nc1ccccc1Cl | 35.5 µM [rising, single point] | 
Cc1ccc(S(=O)(=O)N2CCCOC2CNC(=O)C(=O)NCCC2=CCCCC2)cc1 (stereo unspecified) | 20 µM [rising, single point] | 12.6 µM [rising, single point]
COc1ccc(Oc2ncc3nc(-c4ccc(Cl)cc4)c(=O)n(C4CC4)c3n2)cc1 |  | 14.1 µM [falling, partial curve, poor fit]
CC(C)C(=O)Nc1c2c(nc3ccccc13)N(C)CC2 | 0.0794 µM [falling, full curve, poor fit] | 
O=C(/C=C/c1ccccc1Cl)NCCc1ccccc1 | 15.8 µM [rising, partial curve] | 2.82 µM [rising, full curve]
Cc1ccc(C)c(N2CCN(C(=O)Cc3ccc(-n4c(=O)[nH]c5ccsc5c4=O)cc3)CC2)c1 | 35.5 µM [rising, partial curve, poor fit] | 
O=C(NC1CCc2ccccc21)c1cc(COc2ccc(F)cc2F)on1 (stereo unspecified) | 12.6 µM [falling, partial curve] | 
COCCSc1nnc(NC(=O)c2ccc(NC(=O)C(C)C)cc2)s1 | 35.5 µM [falling, partial curve, poor fit] | 35.5 µM [falling, partial curve]
COc1cc(NC(=O)Cn2ccn(Cc3ccccc3OC)c(=O)c2=O)cc(OC)c1 | 6.31 µM [falling, partial curve] | 35.5 µM [falling, single point]
N#Cc1nc(COc2ccc(Cl)cc2)oc1N1CCN(Cc2ccccc2)CC1 | 14.1 µM [rising, single point] | 
COc1cc2c(C#N)c(N3CCN(c4ccccc4OC)CC3)nc(N)c2c(N)n1 | 35.5 µM [falling, single point] | 35.5 µM [falling, single point]
Cc1noc(C)c1-c1ccc2ncnc(NC3CC3)c2c1 | 6.31 µM [rising, single point] | 7.94 µM [falling, partial curve]
COc1ccc(OC)c(Nc2ncnc3c2cnn3-c2cccc(Cl)c2)c1 | 5.01 µM [rising, partial curve] | 
Cc1ccc(C(C)NC(=O)/C(C#N)=C\c2c(C)[nH]c3ccccc23)cc1 (stereo unspecified) | 15.8 µM [rising, single point] | 20 µM [rising, single point]
Cc1ccc(C)c(SCC(=O)NC(=O)NCc2ccccc2)c1 | 35.5 µM [rising, single point] | 31.6 µM [rising, single point]
O=C(N/N=C1/CC2C=CCC12)c1ccco1 (stereo unspecified) | 2.82 µM [rising, single point] | 
COc1cccc(N2CCN(C(=O)c3nc4nc(C)cc(C)n4n3)CC2)c1 | 11.2 µM [falling, partial curve, poor fit] | 3.16 µM [falling, partial curve, poor fit]
C[C@@H]1C=C[C@](Cc2ccccc2)(C(=O)NCC2CC2)N1C(=O)c1ccccc1 | 31.6 µM [rising, single point] | 
Cc1cc(/C=C(/C#N)c2cccc(F)c2)c(C)n1-c1cccnc1 | 35.5 µM [rising, single point] | 25.1 µM [rising, single point]
O=C1CC(c2ccccc2F)c2cc3c(cc2N1)CCC3 (stereo unspecified) | 7.08 µM [falling, full curve] | 5.62 µM [falling, full curve]

Compound | AC50 [1] | AC50 [2]
O=C(c1nc2ccc(Cl)cn2c1CNCCn1ccnc1)N1CCCCCCC1 | 0.141 µM [falling, full curve, poor fit] | 
COc1ccc(NC(=O)c2cc(S(=O)(=O)NCC3COc4ccccc4O3)ccc2F)cc1 (stereo unspecified) | 31.6 µM [rising, single point] | 
COc1ccc(S(=O)(=O)NCC(c2ccc(N(C)C)cc2)N2CCc3ccccc32)cc1 (stereo unspecified) |  | 10 µM [falling, partial curve, poor fit]
O=C1CC(c2ccc(F)cc2)C2=C(CCCC2=O)N1 (stereo unspecified) | 0.891 µM [falling, full curve, poor fit] | 1.12 µM [falling, full curve, poor fit]
O=C(OC(c1ccccc1)c1nccc2ccccc12)c1cccc([N+](=O)[O-])c1 (stereo unspecified) | 35.5 µM [rising, single point] | 
Cc1nnc(NC(=O)c2ccc3ccccc3c2)o1 | 12.6 µM [rising, partial curve, poor fit] | 
CN(C)c1ccc(-c2nn3c(-c4ccc(Cl)cc4Cl)nnc3s2)cc1 | 5.62 µM [rising, partial curve] | 
COc1cc(CNCCSc2nnnn2C)cc(Br)c1OCc1ccc(F)cc1 | 31.6 µM [rising, single point] | 
CC(C(=O)O)N1C(=O)/C(=C/c2cccn2C)SC1=S (stereo unspecified) | 0.0126 µM [falling, full curve, poor fit] | 5.01 µM [falling, partial curve]
N/C(CSc1nc(-c2ccccc2)c(-c2ccccc2)o1)=N\O |  | 14.1 µM [rising, single point]
CC=C(/C(=C/C)c1ccc(O)cc1)c1ccc(O)cc1 | 0.01 µM [falling, full curve, poor fit] | 3.55 µM [falling, single point]
CCCC(=O)Nc1ccccc1Sc1ncnc2scc(-c3ccccc3)c12 | 12.6 µM [rising, partial curve, poor fit] | 15.8 µM [rising, single point]
Cc1[nH]c2ccccc2c1/C=N/Nc1ccc([N+](=O)[O-])cc1 | 35.5 µM [rising, single point] | 31.6 µM [rising, single point]
O=C(C1CCN(c2ncnc3c2nc2n3CCCCC2)CC1)N1CCN(c2ccc(F)cc2)CC1 |  | 11.2 µM [falling, partial curve]
COc1cccc(C(=O)Nc2ccc(S(=O)(=O)Nc3cc(C)nc(C)n3)cc2)c1 | 7.94 µM [rising, partial curve, poor fit] | 6.31 µM [rising, partial curve, poor fit]
O=C(c1ccc(S(=O)(=O)c2ccccc2Cl)c([N+](=O)[O-])c1)N1CCCCCC1 | 15.8 µM [rising, partial curve] | 
COc1ccccc1-c1nc2ccccc2nc1-c1ccccc1 | 20 µM [rising, single point] | 11.2 µM [rising, partial curve]
CC(=O)Oc1cc2c(cc1Cl)C1(CC(c3ccccc3Cl)O2)CC(C)(C)NC(=S)N1 (stereo unspecified) | 22.4 µM [rising, single point] | 22.4 µM [rising, single point]
COc1cccc(-c2nnc(NC(=O)c3ccc(S(=O)(=O)N(CC(C)C)CC(C)C)cc3)o2)c1 | 4.47 µM [rising, partial curve] | 
Cc1ccc(OCC(=O)NCC2(N3CCOCC3)CCCCC2)cc1C | 0.00316 µM [falling, full curve, poor fit] | 
CC1=CC(C)C2(CO)COC(c3ccc(O)cc3)C1C2C (stereo unspecified) | 0.00355 µM [rising, full curve, poor fit] | 
COc1ccc(CCN2C(=O)C(Oc3ccccc3C)C2c2ccc3c(c2)OCO3)cc1 (stereo unspecified) | 35.5 µM [rising, single point] | 
COC(=O)C1=C2SC(C)C(=O)N2C(N)=C(C#N)C1c1ccc(OC)c(OC)c1 (stereo unspecified) |  | 4.47 µM [rising, full curve, poor fit]
CN(c1ccccc1)S(=O)(=O)c1ccc(C(=O)Nc2nnc(-c3ccc(F)cc3)o2)cc1 | 2.82 µM [rising, single point] | 
Nc1cc(S(=O)(=O)N2CCCCC2)ccc1Oc1ccc(Cl)cc1 |  | 11.2 µM [falling, partial curve, poor fit]
COc1ccc(CCNC(=O)CCN2C(=O)c3ccccc3C2=O)cc1OC | 3.55 µM [falling, partial curve, poor fit] | 
OC(COC(c1ccc(Cl)cc1)c1ccc(Cl)cc1)CN1CCN(c2ccccn2)CC1 (stereo unspecified) | 35.5 µM [falling, single point] | 35.5 µM [falling, single point]

Of the compounds above, 4 contain a thiophene ring, fused or not:
Compound | AC50 [1] | AC50 [2]
Cc1cc(S(=O)(=O)N(Cc2ccc(C(C)(C)C)cc2)Cc2cccs2)ccc1-n1cnnn1 | 31.6 µM [rising, single point] | 25.1 µM [rising, single point]
Cc1ccc(-c2cc(C(=O)N/N=C/C=C/c3ccccc3)n[nH]2)s1 | 35.5 µM [rising, single point] | 15.8 µM [rising, single point]
Cc1ccc(C)c(N2CCN(C(=O)Cc3ccc(-n4c(=O)[nH]c5ccsc5c4=O)cc3)CC2)c1 | 35.5 µM [rising, partial curve, poor fit] | 
CCCC(=O)Nc1ccccc1Sc1ncnc2scc(-c3ccccc3)c12 | 12.6 µM [rising, partial curve, poor fit] | 15.8 µM [rising, single point]
